From the supplement of paper PMC10849652
Some of the results follow.

By UniProt entry, the sequences of proteins in these tests, tags left out. Where a name states a change or a piece, a line headed by the entry shows the natural chain unless it says otherwise.
UniProt Q8IUH3: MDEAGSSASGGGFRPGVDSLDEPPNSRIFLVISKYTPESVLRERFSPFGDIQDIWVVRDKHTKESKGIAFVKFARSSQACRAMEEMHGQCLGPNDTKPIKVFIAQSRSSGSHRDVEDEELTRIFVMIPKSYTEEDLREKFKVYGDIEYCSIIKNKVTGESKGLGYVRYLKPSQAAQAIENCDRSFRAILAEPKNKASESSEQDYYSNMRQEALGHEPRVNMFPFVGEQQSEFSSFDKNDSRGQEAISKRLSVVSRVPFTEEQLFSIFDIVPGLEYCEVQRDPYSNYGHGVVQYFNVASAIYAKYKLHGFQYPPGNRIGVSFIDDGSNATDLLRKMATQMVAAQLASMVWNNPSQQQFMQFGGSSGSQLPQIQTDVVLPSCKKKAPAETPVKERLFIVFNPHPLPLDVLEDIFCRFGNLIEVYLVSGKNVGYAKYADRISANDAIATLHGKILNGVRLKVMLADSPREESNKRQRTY
UniProt P48380: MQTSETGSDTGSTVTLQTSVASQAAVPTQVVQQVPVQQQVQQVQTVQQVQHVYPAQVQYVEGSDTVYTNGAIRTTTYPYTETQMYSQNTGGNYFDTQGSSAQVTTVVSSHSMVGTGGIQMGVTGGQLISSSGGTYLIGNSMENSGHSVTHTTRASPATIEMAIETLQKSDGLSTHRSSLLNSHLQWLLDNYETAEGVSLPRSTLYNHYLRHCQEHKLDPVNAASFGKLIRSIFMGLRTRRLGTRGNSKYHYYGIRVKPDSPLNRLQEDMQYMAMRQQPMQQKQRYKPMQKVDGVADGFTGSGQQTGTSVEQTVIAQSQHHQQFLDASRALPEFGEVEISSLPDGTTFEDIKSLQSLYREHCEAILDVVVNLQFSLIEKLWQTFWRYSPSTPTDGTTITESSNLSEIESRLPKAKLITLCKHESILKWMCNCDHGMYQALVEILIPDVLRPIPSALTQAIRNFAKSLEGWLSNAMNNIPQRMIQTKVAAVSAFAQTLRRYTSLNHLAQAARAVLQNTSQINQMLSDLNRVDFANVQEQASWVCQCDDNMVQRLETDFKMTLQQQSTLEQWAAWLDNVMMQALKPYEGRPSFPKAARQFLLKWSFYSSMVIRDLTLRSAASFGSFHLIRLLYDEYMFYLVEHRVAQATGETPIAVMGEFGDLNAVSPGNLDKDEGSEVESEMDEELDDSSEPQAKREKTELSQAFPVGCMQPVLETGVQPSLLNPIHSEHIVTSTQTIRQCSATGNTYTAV
UniProt Q96D71: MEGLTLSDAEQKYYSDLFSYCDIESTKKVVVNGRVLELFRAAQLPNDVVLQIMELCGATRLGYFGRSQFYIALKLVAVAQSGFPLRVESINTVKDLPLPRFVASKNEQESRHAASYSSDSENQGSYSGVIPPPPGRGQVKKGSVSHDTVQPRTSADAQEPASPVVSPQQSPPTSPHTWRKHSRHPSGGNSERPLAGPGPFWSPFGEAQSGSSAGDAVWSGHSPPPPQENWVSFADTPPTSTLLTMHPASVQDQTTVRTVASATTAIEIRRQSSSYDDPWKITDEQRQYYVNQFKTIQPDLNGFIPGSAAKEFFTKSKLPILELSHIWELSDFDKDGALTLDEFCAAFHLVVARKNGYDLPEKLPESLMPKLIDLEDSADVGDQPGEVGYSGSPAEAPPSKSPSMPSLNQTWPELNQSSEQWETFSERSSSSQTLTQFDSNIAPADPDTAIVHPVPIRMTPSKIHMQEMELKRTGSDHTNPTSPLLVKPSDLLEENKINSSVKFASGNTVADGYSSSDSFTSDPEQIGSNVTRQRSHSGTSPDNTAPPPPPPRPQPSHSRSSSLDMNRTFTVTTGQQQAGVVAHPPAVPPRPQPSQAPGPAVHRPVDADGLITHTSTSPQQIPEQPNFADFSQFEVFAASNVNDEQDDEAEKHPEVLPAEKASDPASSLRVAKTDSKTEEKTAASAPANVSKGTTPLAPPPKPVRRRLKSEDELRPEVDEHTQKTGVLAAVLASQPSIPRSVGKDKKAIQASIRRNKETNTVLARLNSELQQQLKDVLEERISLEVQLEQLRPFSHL
UniProt Q8N0V3: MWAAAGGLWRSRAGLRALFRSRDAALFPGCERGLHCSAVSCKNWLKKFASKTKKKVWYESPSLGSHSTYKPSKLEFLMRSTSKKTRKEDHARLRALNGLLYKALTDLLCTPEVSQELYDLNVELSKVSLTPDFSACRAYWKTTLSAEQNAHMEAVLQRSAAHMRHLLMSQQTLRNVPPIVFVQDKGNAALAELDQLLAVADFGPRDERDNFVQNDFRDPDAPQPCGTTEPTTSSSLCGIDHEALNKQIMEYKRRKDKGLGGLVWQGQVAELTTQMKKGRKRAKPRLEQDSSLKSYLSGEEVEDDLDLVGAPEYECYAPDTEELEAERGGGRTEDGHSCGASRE
UniProt Q8NC44: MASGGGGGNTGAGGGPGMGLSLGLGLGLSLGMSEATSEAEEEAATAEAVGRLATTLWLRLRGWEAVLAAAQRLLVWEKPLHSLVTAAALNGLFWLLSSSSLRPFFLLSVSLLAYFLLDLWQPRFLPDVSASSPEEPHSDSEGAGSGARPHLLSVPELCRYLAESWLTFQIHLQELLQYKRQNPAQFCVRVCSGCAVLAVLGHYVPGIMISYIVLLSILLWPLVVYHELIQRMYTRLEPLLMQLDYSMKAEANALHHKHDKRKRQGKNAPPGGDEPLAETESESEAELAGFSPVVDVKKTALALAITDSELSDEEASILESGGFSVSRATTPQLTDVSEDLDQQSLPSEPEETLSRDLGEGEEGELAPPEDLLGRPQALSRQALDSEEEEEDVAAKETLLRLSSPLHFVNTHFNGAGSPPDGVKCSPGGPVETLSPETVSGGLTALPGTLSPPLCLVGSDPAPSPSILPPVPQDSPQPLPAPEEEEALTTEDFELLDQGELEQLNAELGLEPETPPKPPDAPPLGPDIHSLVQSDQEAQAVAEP
UniProt P49795: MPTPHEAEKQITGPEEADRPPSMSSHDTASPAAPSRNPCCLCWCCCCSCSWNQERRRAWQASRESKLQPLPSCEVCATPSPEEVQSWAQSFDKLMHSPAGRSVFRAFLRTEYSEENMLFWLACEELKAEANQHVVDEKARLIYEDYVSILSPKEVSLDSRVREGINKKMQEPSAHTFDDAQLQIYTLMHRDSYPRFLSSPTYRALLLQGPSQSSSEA
UniProt Q96EN9: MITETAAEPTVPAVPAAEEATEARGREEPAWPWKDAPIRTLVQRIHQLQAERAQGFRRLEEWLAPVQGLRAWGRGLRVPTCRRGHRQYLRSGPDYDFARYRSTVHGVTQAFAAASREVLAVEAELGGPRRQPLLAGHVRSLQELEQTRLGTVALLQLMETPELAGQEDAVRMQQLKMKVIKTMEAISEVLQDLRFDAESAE
UniProt Q04206, whole entry, looked up: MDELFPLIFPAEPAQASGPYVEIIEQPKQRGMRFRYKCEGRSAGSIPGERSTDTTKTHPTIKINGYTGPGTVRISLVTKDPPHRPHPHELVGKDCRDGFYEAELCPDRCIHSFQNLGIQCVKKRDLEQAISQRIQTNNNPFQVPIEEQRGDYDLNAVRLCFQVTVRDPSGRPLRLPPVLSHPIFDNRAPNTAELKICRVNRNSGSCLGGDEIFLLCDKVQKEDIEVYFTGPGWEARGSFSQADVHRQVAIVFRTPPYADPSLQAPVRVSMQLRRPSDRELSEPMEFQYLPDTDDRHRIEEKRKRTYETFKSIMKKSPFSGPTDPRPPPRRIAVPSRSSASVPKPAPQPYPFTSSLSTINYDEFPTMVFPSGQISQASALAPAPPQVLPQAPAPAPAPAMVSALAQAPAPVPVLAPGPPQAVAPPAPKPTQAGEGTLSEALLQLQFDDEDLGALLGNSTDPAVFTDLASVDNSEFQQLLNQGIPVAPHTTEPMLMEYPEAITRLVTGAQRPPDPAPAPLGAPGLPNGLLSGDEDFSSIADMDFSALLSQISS
UniProt Q6PCD5: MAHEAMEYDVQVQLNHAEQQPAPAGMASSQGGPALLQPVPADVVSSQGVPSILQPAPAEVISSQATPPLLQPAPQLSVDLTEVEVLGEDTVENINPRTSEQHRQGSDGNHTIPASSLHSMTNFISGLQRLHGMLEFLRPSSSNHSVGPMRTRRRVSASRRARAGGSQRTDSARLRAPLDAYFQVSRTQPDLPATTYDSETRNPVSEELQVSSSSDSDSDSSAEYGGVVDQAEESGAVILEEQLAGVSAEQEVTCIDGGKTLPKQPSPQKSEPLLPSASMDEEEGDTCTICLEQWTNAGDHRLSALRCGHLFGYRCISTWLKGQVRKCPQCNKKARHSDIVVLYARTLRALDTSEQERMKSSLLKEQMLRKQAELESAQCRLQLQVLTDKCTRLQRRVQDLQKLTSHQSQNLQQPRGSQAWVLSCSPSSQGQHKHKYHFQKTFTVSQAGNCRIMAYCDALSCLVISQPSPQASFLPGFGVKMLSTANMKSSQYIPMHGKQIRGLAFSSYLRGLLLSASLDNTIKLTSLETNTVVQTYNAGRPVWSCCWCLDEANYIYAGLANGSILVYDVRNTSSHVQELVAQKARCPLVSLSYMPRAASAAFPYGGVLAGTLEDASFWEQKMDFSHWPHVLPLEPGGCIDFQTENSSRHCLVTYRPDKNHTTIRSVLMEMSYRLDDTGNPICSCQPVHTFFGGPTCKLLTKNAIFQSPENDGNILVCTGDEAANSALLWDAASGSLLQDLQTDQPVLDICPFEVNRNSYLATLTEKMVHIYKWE
UniProt Q15291, whole entry, looked up: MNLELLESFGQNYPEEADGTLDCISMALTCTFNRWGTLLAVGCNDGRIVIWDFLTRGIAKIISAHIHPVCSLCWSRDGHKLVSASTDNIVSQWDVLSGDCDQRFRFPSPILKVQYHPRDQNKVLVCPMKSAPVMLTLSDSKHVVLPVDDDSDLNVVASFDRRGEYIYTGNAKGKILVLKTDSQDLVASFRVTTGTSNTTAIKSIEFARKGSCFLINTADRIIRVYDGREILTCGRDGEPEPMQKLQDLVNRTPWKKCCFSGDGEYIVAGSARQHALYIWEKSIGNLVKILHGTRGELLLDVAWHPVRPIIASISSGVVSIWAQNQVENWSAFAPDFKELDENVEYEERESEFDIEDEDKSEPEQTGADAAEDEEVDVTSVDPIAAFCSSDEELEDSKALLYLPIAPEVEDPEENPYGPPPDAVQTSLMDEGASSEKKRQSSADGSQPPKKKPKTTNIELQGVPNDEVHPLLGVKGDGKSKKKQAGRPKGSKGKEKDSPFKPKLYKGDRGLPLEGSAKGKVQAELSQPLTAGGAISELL
UniProt Q8NDN9: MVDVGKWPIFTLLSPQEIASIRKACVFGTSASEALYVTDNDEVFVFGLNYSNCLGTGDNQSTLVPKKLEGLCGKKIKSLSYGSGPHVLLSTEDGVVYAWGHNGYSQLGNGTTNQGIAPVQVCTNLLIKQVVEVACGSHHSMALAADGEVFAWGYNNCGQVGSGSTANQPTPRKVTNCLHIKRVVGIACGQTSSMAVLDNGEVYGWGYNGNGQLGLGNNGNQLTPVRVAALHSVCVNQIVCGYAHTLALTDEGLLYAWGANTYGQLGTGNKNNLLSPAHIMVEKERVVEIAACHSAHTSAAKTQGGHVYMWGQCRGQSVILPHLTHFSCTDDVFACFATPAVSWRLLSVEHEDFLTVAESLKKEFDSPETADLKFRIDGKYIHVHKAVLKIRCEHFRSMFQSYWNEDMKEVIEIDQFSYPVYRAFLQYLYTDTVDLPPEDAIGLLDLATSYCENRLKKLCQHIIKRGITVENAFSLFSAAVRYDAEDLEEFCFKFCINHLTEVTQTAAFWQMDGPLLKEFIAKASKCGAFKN
UniProt Q8WWW0: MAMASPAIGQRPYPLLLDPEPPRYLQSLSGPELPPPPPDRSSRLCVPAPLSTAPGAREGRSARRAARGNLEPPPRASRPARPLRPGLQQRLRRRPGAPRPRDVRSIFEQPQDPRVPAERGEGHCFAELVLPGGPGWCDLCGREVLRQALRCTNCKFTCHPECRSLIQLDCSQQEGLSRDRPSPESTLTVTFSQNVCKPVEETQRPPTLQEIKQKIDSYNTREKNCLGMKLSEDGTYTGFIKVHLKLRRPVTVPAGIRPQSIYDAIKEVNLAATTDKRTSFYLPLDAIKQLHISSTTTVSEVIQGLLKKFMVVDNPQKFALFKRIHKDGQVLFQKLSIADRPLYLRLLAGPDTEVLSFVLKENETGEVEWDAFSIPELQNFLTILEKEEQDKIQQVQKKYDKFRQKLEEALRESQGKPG

Experiments:
Experiment in all cases: log2 fold change, soluble protein after heating vs DMSO (PISA); higher = thermal stabilisation; K562 lysate, 10 uM; active = over 0.2 and 3.5 SD of the protein, either way, in both replicates (recomputed)
[1] = compound: Cc1cn(-c2cc(NC(=O)c3ccc(C)c(Nc4nccc(-c5cccnc5)n4)c3)cc(C(F)(F)F)c2)cn1 [nilotinib]
How it was run: (§1)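 A 30 min treatment with 10 μM compound was applied to crude K562 extract at 1 mg/mL protein in PBS pH 7.4 with 1 mM MgCl2. Heating for 3 min spanned 48°C-58°C, after which aliquots were pooled, adjusted to 0.5% NP-40 at 4°C and spun at 21,000xg for 90 min. TMTpro 16plex LC-MS/MS of the supernatant, with channel sums equalised, gave values recorded as log-two fold change in thermal stability against solvent controls, from duplicates.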

[2] = compound: Cc1nc(Nc2n[nH]c3c2CN(C(=O)N[C@H](CN(C)C)c2ccccc2)C3(C)C)c2sccc2n1
How it was run: as §1

[3] = compound: Cc1nc(Nc2ncc(C(=O)Nc3c(C)cccc3Cl)s2)cc(N2CCN(CCO)CC2)n1 [dasatinib]
How it was run: as §1

[4] = compound: Cc1ncc(-c2ccnc(Nc3ccc(S(C)(=O)=O)cc3)n2)n1C(C)C
How it was run: as §1

[5] = compound: Cn1cc(-c2ccc3c(c2)CCN3C(=O)Cc2cccc(C(F)(F)F)c2)c2c(N)ncnc21
How it was run: as §1

[6] = compound: Cn1cncc1[C@@](N)(c1ccc(Cl)cc1)c1ccc2c(c1)c(-c1cccc(Cl)c1)cc(=O)n2C [tipifarnib]
How it was run: as §1

[7] = compound: NC(=O)c1cnc(N[C@@H]2CCCC[C@@H]2N)nc1Nc1cccc(-n2nccn2)c1
How it was run: as §1

[8] = compound: NC1(c2ccc(-c3nc4ccn5c(=O)[nH]nc5c4cc3-c3ccccc3)cc2)CCC1
How it was run: as §1

[9] = compound: Cn1cc(CNCC2CCN(c3ncc(C(=O)NO)cn3)CC2)c2ccccc21 [quisinostat]
How it was run: as §1

[10] = compound: NC(=O)Nc1cc(-c2cccc(F)c2)sc1C(=O)N[C@H]1CCCNC1
How it was run: as §1

Target | log2 fold change [1] | log2 fold change [2] | log2 fold change [3] | log2 fold change [4] | log2 fold change [5] | log2 fold change [6] | log2 fold change [7] | log2 fold change [8] | log2 fold change [9] | log2 fold change [10]
RBM47 | inactive: -0.334 | inactive: 0.018 | inactive: -0.018 | inactive: -0.285 | inactive: -0.031 | inactive: 0.101 | inactive: 0.066 | inactive: -0.102 | – | –
RBM45 (UniProt Q8IUH3) | inactive: 0.051 | inactive: -0.077 | – | inactive: 0.143 | – | inactive: -0.012 | inactive: 0.061 | – | inactive: -0.145 | inactive: -0.025
RBM12B (UniProt Q8IXT5) | inactive: -0.025 | inactive: 0.002 | – | inactive: 0.07 | – | inactive: 0.113 | – | – | – | –
RFX3 (UniProt P48380) | inactive: 0.015 | inactive: 0.105 | inactive: -0.024 | inactive: 0.005 | inactive: -0.062 | inactive: 0.021 | – | – | – | –
REPS1 (UniProt Q96D71) | inactive: 0.006 | inactive: -0.013 | inactive: 0.012 | inactive: 0.002 | inactive: 0.012 | inactive: -0.025 | inactive: 0.034 | inactive: -0.005 | inactive: -0.065 | inactive: 0.011
RBFA (UniProt Q8N0V3) | inactive: 0.002 | inactive: -0.011 | – | inactive: 0.046 | – | inactive: 0.058 | – | inactive: 0 | inactive: 0.163 | inactive: -0.001
RETREG2 (UniProt Q8NC44) | active: 0.363 | inactive: -0.135 | – | inactive: 0.055 | – | inactive: -0.076 | inactive: -0.012 | inactive: -0.022 | inactive: -0.084 | inactive: -0.016
RHEB (UniProt Q15382) | inactive: 0.004 | inactive: -0.015 | inactive: -0.046 | inactive: -0.05 | inactive: 0.04 | inactive: 0.003 | inactive: 0.02 | inactive: 0.022 | inactive: 0 | inactive: 0.003
RECQL4 (UniProt O94761) | inactive: 0.051 | inactive: 0.102 | inactive: -0.007 | inactive: -0.063 | inactive: -0.019 | inactive: 0.024 | – | inactive: 0.017 | inactive: -0.094 | inactive: 0.023
RGS19 (UniProt P49795) | inactive: -0.181 | inactive: 0.049 | – | inactive: 0.159 | – | inactive: 0.044 | – | – | inactive: -0.091 | inactive: -0.048
REX1BD (UniProt Q96EN9) | inactive: 0.262 | inactive: -0.073 | inactive: 0.124 | inactive: 0.16 | inactive: -0.049 | inactive: 0.107 | – | inactive: -0.014 | inactive: 0.081 | inactive: 0.168
RELA (UniProt Q04206) | inactive: 0.001 | inactive: -0.017 | – | inactive: 0.001 | inactive: -0.013 | inactive: -0.001 | inactive: 0.012 | inactive: 0.002 | inactive: -0.07 | inactive: 0.006
RFWD3 (UniProt Q6PCD5) | inactive: 0.042 | inactive: -0.066 | inactive: 0.027 | inactive: -0.082 | inactive: 0.004 | inactive: -0.037 | – | inactive: -0.053 | inactive: -0.041 | inactive: 0.003
RBBP5 (UniProt Q15291) | inactive: -0.002 | inactive: 0.033 | inactive: 0.094 | inactive: -0.014 | inactive: -0.051 | inactive: 0.01 | inactive: 0.004 | inactive: -0.046 | inactive: -0.021 | inactive: 0.022
RCBTB1 (UniProt Q8NDN9) | inactive: -0.186 | inactive: -0.01 | – | inactive: 0.217 | – | inactive: 0.175 | – | inactive: -0.022 | inactive: 0.079 | inactive: -0.089
RASSF5 (UniProt Q8WWW0) | inactive: -0.097 | inactive: 0.167 | inactive: 0.087 | inactive: 0.021 | inactive: 0.1 | inactive: 0 | inactive: 0.065 | inactive: 0.05 | inactive: -0.155 | inactive: 0.216
RCN3 (UniProt Q96D15) | inactive: 0.035 | inactive: 0.073 | inactive: -0.064 | inactive: -0.021 | inactive: 0.114 | inactive: -0.043 | inactive: 0.042 | inactive: -0.066 | inactive: 0.091 | inactive: -0.027

A portion from further up:
Target | log2 fold change [1] | log2 fold change [2] | log2 fold change [3] | log2 fold change [4] | log2 fold change [5] | log2 fold change [6] | log2 fold change [7] | log2 fold change [8] | log2 fold change [9] | log2 fold change [10]
RECQL4 (UniProt O94761) | inactive: 0.051 | inactive: 0.102 | inactive: -0.007 | inactive: -0.063 | inactive: -0.019 | inactive: 0.024 | – | inactive: 0.017 | inactive: -0.094 | inactive: 0.023
RGS19 (UniProt P49795) | inactive: -0.181 | inactive: 0.049 | – | inactive: 0.159 | – | inactive: 0.044 | – | – | inactive: -0.091 | inactive: -0.048
